4 molecules from paper PMC11018839, “ANKFY1 bridges ATG2A-mediated lipid transfer from endosomes to phagophores” (Cell Discovery, 2024) can be followed below.

Results are given in words; binding and its absence hold for the method and conditions named. In cells and extracts the contact can be indirect. Some binding calls cover weakened binding; strength is not graded here. For some of these results: Tags and fused reporters may be left off the sequences shown.

Experiment [1] has as its target T1, ATG2A-C (1113–1938) (human) (UniProt Q2TAZ0).
T1 sequence: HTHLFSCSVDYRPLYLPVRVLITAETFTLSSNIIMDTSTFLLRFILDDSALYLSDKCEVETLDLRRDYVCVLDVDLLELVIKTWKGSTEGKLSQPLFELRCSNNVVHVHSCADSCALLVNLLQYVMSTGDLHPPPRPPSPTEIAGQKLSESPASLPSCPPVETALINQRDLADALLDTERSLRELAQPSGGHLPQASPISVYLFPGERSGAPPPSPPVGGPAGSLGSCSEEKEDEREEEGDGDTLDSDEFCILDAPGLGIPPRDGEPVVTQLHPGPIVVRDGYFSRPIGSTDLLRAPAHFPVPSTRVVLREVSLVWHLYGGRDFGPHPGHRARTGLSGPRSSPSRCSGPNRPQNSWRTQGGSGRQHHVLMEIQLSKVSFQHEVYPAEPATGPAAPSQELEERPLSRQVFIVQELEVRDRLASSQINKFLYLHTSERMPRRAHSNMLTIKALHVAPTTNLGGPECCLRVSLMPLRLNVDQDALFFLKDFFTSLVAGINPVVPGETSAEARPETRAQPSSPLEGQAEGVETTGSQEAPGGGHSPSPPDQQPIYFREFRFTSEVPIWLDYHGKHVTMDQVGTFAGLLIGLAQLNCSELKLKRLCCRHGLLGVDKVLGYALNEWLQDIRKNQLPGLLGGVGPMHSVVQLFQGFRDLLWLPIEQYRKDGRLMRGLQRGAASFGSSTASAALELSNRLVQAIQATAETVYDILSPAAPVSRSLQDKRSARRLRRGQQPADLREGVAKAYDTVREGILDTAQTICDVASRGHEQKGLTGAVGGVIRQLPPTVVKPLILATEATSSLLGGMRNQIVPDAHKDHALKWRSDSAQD
Put plainly: co-IP; immunoprecipitation of ATG2A fragments (1113-1938 or 1-345) with WIPI4 or ANKFY1, with or without expression of the third protein (ANKFY1 or WIPI4).

In the next experiment the target is Flag-ATG2A (human) (UniProt Q2TAZ0). The experiment is described as follows: co-IP; HEK293T co-expressing tagged ANKFY1 and Flag-ATG2A; lysates immunoprecipitated with anti-Flag antibody; with or without 200 nM Torin 1 for 3 h, or regular culture, amino acid starvation or glucose starvation for 6 h; lysis buffer 20 mM Tris-HCl pH 7.5, 150 mM NaCl, 0.5% NP-40, 1 mM EDTA.

The target in another experiment is T2, ATG2A-N (1–345) (human) (UniProt Q2TAZ0).
T2 sequence: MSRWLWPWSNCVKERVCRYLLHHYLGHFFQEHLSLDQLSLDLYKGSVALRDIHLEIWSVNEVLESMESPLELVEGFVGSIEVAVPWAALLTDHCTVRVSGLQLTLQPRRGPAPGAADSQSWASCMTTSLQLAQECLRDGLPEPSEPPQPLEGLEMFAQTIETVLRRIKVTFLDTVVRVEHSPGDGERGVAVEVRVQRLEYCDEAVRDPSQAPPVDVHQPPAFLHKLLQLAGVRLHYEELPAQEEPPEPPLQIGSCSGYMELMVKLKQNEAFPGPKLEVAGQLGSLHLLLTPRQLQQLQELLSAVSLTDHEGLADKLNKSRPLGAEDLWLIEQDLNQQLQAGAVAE
The experiment is described as follows: co-IP; immunoprecipitation of ATG2A fragments (1113-1938 or 1-345) with WIPI4 or ANKFY1, with or without expression of the third protein (ANKFY1 or WIPI4).

B1: WIPI4 (expressed for the immunoprecipitations of Supplementary Fig. S7) (protein, UniProt Q9Y484 1-360)
chain: MTQQPLRGVTSLRFNQDQSCFCCAMETGVRIYNVEPLMEKGHLDHEQVGSMGLVEMLHRSNLLALVGGGSSPKFSEISVLIWDDAREGKDSKEKLVLEFTFTKPVLSVRMRHDKIVIVLKNRIYVYSFPDNPRKLFEFDTRDNPKGLCDLCPSLEKQLLVFPGHKCGSLQLVDLASTKPGTSSAPFTINAHQSDIACVSLNQPGTVVASASQKGTLIRLFDTQSKEKLVELRRGTDPATLYCINFSHDSSFLCASSDKGTVHIFALKDTRLNRRSALARVGKVGPMIGQYVDSQWSLASFTVPAESACICAFGRNTSKNVNSVIAICVDGTFHKYVFTPDGNCNREAFDVYLDICDDDDF
Regarding B1, in experiment [1], the binding result is reported as “binds”.

B2: GFP-ANKFY1 (protein, UniProt Q9P2R3 1-1169)
chain: MAEEEVAKLEKHLMLLRQEYVKLQKKLAETEKRCALLAAQANKESSSESFISRLLAIVADLYEQEQYSDLKIKVGDRHISAHKFVLAARSDSWSLANLSSTKELDLSDANPEVTMTMLRWIYTDELEFREDDVFLTELMKLANRFQLQLLRERCEKGVMSLVNVRNCIRFYQTAEELNASTLMNYCAEIIASHWDDLRKEDFSSMSAQLLYKMIKSKTEYPLHKAIKVEREDVVFLYLIEMDSQLPGKLNEADHNGDLALDLALSRRLESIATTLVSHKADVDMVDKSGWSLLHKGIQRGDLFAATFLIKNGAFVNAATLGAQETPLHLVALYSSKKHSADVMSEMAQIAEALLQAGANPNMQDSKGRTPLHVSIMAGNEYVFSQLLQCKQLDLELKDHEGSTALWLAVQHITVSSDQSVNPFEDVPVVNGTSFDENSFAARLIQRGSHTDAPDTATGNCLLQRAAGAGNEAAALFLATNGAHVNHRNKWGETPLHTACRHGLANLTAELLQQGANPNLQTEEALPLPKEAASLTSLADSVHLQTPLHMAIAYNHPDVVSVILEQKANALHATNNLQIIPDFSLKDSRDQTVLGLALWTGMHTIAAQLLGSGAAINDTMSDGQTLLHMAIQRQDSKSALFLLEHQADINVRTQDGETALQLAIRNQLPLVVDAICTRGADMSVPDEKGNPPLWLALANNLEDIASTLVRHGCDATCWGPGPGGCLQTLLHRAIDENNEPTACFLIRSGCDVNSPRQPGANGEGEEEARDGQTPLHLAASWGLEETVQCLLEFGANVNAQDAEGRTPIHVAISSQHGVIIQLLVSHPDIHLNVRDRQGLTPFACAMTFKNNKSAEAILKRESGAAEQVDNKGRNFLHVAVQNSDIESVLFLISVHANVNSRVQDASKLTPLHLAVQAGSEIIVRNLLLAGAKVNELTKHRQTALHLAAQQDLPTICSVLLENGVDFAAVDENGNNALHLAVMHGRLNNIRVLLTECTVDAEAFNLRGQSPLHILGQYGKENAAAIFDLFLECMPGYPLDKPDADGSTVLLLAYMKGNANLCRAIVRSGARLGVNNNQGVNIFNYQVATKQLLFRLLDMLSKEPPWCDGSYCYECTARFGVTTRKHHCRHCGRLLCHKCSTKEIPIIKFDLNKPVRVCNICFDVLTLGGVS
On to B2, for which the binding entry with Flag-ATG2A (human) was “binds”.

B3: mCherry-ANKFY1 (protein, UniProt Q9P2R3 1-1169)
chain: MAEEEVAKLEKHLMLLRQEYVKLQKKLAETEKRCALLAAQANKESSSESFISRLLAIVADLYEQEQYSDLKIKVGDRHISAHKFVLAARSDSWSLANLSSTKELDLSDANPEVTMTMLRWIYTDELEFREDDVFLTELMKLANRFQLQLLRERCEKGVMSLVNVRNCIRFYQTAEELNASTLMNYCAEIIASHWDDLRKEDFSSMSAQLLYKMIKSKTEYPLHKAIKVEREDVVFLYLIEMDSQLPGKLNEADHNGDLALDLALSRRLESIATTLVSHKADVDMVDKSGWSLLHKGIQRGDLFAATFLIKNGAFVNAATLGAQETPLHLVALYSSKKHSADVMSEMAQIAEALLQAGANPNMQDSKGRTPLHVSIMAGNEYVFSQLLQCKQLDLELKDHEGSTALWLAVQHITVSSDQSVNPFEDVPVVNGTSFDENSFAARLIQRGSHTDAPDTATGNCLLQRAAGAGNEAAALFLATNGAHVNHRNKWGETPLHTACRHGLANLTAELLQQGANPNLQTEEALPLPKEAASLTSLADSVHLQTPLHMAIAYNHPDVVSVILEQKANALHATNNLQIIPDFSLKDSRDQTVLGLALWTGMHTIAAQLLGSGAAINDTMSDGQTLLHMAIQRQDSKSALFLLEHQADINVRTQDGETALQLAIRNQLPLVVDAICTRGADMSVPDEKGNPPLWLALANNLEDIASTLVRHGCDATCWGPGPGGCLQTLLHRAIDENNEPTACFLIRSGCDVNSPRQPGANGEGEEEARDGQTPLHLAASWGLEETVQCLLEFGANVNAQDAEGRTPIHVAISSQHGVIIQLLVSHPDIHLNVRDRQGLTPFACAMTFKNNKSAEAILKRESGAAEQVDNKGRNFLHVAVQNSDIESVLFLISVHANVNSRVQDASKLTPLHLAVQAGSEIIVRNLLLAGAKVNELTKHRQTALHLAAQQDLPTICSVLLENGVDFAAVDENGNNALHLAVMHGRLNNIRVLLTECTVDAEAFNLRGQSPLHILGQYGKENAAAIFDLFLECMPGYPLDKPDADGSTVLLLAYMKGNANLCRAIVRSGARLGVNNNQGVNIFNYQVATKQLLFRLLDMLSKEPPWCDGSYCYECTARFGVTTRKHHCRHCGRLLCHKCSTKEIPIIKFDLNKPVRVCNICFDVLTLGGVS
With B3, the binding result with Flag-ATG2A (human) is “binds”.

B4: ANKFY1 (expressed for the immunoprecipitations of Supplementary Fig. S7) (protein, UniProt Q9P2R3 1-1169)
chain: MAEEEVAKLEKHLMLLRQEYVKLQKKLAETEKRCALLAAQANKESSSESFISRLLAIVADLYEQEQYSDLKIKVGDRHISAHKFVLAARSDSWSLANLSSTKELDLSDANPEVTMTMLRWIYTDELEFREDDVFLTELMKLANRFQLQLLRERCEKGVMSLVNVRNCIRFYQTAEELNASTLMNYCAEIIASHWDDLRKEDFSSMSAQLLYKMIKSKTEYPLHKAIKVEREDVVFLYLIEMDSQLPGKLNEADHNGDLALDLALSRRLESIATTLVSHKADVDMVDKSGWSLLHKGIQRGDLFAATFLIKNGAFVNAATLGAQETPLHLVALYSSKKHSADVMSEMAQIAEALLQAGANPNMQDSKGRTPLHVSIMAGNEYVFSQLLQCKQLDLELKDHEGSTALWLAVQHITVSSDQSVNPFEDVPVVNGTSFDENSFAARLIQRGSHTDAPDTATGNCLLQRAAGAGNEAAALFLATNGAHVNHRNKWGETPLHTACRHGLANLTAELLQQGANPNLQTEEALPLPKEAASLTSLADSVHLQTPLHMAIAYNHPDVVSVILEQKANALHATNNLQIIPDFSLKDSRDQTVLGLALWTGMHTIAAQLLGSGAAINDTMSDGQTLLHMAIQRQDSKSALFLLEHQADINVRTQDGETALQLAIRNQLPLVVDAICTRGADMSVPDEKGNPPLWLALANNLEDIASTLVRHGCDATCWGPGPGGCLQTLLHRAIDENNEPTACFLIRSGCDVNSPRQPGANGEGEEEARDGQTPLHLAASWGLEETVQCLLEFGANVNAQDAEGRTPIHVAISSQHGVIIQLLVSHPDIHLNVRDRQGLTPFACAMTFKNNKSAEAILKRESGAAEQVDNKGRNFLHVAVQNSDIESVLFLISVHANVNSRVQDASKLTPLHLAVQAGSEIIVRNLLLAGAKVNELTKHRQTALHLAAQQDLPTICSVLLENGVDFAAVDENGNNALHLAVMHGRLNNIRVLLTECTVDAEAFNLRGQSPLHILGQYGKENAAAIFDLFLECMPGYPLDKPDADGSTVLLLAYMKGNANLCRAIVRSGARLGVNNNQGVNIFNYQVATKQLLFRLLDMLSKEPPWCDGSYCYECTARFGVTTRKHHCRHCGRLLCHKCSTKEIPIIKFDLNKPVRVCNICFDVLTLGGVS
As to B4, the binding entry with ATG2A-N (1–345) (human) is listed as “binds”.
